Measured values from US6849617B2, “Tissue factor antagonists and methods of use thereof” (Sunol Molecular Corporation, priority 1999, dated 2005).
Some of these results come from one statement about several compounds together.

Sequences of proteins named here, by UniProt entry; tags and fusion partners are left off. Residues count along the entry.
UniProt P13726, 33-275 limits assumed: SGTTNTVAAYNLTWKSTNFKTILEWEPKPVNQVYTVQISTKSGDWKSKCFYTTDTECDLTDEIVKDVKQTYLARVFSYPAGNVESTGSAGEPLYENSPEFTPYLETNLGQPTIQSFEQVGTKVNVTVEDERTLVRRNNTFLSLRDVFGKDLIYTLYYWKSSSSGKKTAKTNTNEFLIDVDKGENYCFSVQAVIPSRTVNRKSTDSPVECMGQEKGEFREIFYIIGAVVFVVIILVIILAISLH

How the values were obtained:
[1] = test system: trypsin, RVV, thrombin, FXa, FVIIa, and FIXa; assay: Secondary screening: inhibition of protease activities; assay type: biochemical
[2] = target: TF/VIIa complex (Homo sapiens, UniProt P13726); assay: TF/VIIa-dependent FX activation assay; settings: for concentration inhibiting TF/VIIa-dependent FX activation: retest at 10-, 50- or 100-fold diluted concentrations, selection criterion met

| SMILES | effects on protease activities [1] | concentration inhibiting TF/VIIa-dependent FX activation [2] [mM] | TF antagonist classification ([2]; after primary and secondary screening) |
| --- | --- | --- | --- |
| O=C(N/N=C/c1cc([N+](=O)[O-])ccc1O)c1ccc(OCc2cccc(Br)c2)cc1 [Compound 1] | without significant effects | < 0.1 | – |
| O=C(O)c1cc(/N=C/c2ccc(Br)c([N+](=O)[O-])c2)ccc1O [Compound 2] | without significant effects | < 0.1 | – |
| O=C(CNc1ccc2ccccc2c1)N/N=C/c1cc([N+](=O)[O-])cc([N+](=O)[O-])c1O [Compound 3] | without significant effects | < 0.1 | strong TF antagonists |
| O=C(O)c1ccc2c(c1)C(=O)N(c1ccc(-c3ccnc(-c4ccc(N5C(=O)c6ccc(C(=O)O)cc6C5=O)cc4)n3)cc1)C2=O [Compound 4] | without significant effects | < 0.1 | – |
| O=C1c2cccc3cc(S(=O)(=O)O)cc(c23)C(=O)N1O [Compound 5] | without significant effects | < 0.1 | – |
| O=P(O)(O)C(CN[C@H]1CC[C@H](O)CC1)P(=O)(O)O [Compound 6] | without significant effects | < 0.1 | – |
| O=C(NN=Cc1cccc(Br)c1)C1CC1C(=O)N/N=C/c1cccc(Br)c1 (stereo not drawn) [Compound 7] | without significant effects | < 0.1 | – |
| O=C(Nc1ccc2c(c1)S(=O)(=O)c1cc(NC(=O)c3ccc(Cl)cc3)ccc1-2)c1ccc(Cl)cc1 [Compound 8] | without significant effects | < 0.1 | – |
| Cc1ccc(NC(=O)Nc2ccc(Cl)cc2)cc1NC(=O)Nc1ccc(Cl)cc1 [Compound 9] | without significant effects | < 0.1 | – |
| c1ccc(C(c2ccccc2)N2CCN(C(c3ccccc3)c3ccccc3)CC2)cc1 [Compound 10] | without significant effects | < 0.1 | – |
| CCN1/C(=C/C=C/c2oc3ccc4ccccc4c3[n+]2CC)Oc2ccc3ccccc3c21 [Compound 11] | without significant effects | < 0.1 | – |
| Oc1c(/N=N/c2ccc3cccc(O)c3n2)ccc2ccccc12 [Compound 12] | without significant effects | < 0.1 | – |
| CCOc1cccc(/C=N/c2ccc3oc(-c4ccc5ccccc5c4)nc3c2)c1O [Compound 13] | without significant effects | < 0.1 | – |
| Oc1ccc(C2(CNCC(O)COc3ccccc3)CCCC2)cc1O (stereo not drawn) [Compound 14] | without significant effects | < 0.1 | – |
| CC(=O)/C(C(=S)NC(=O)c1ccccc1)=C(\N)NC(=O)c1ccccc1 [Compound 15] | without significant effects | < 0.1 | – |
| O=c1[nH]c2ccc(/N=C/c3ccc(C#Cc4ccccc4)cc3)cc2o1 [Compound 16] | without significant effects | < 0.1 | – |
| Cc1nn(-c2ccccc2)c(N)c1N [Compound 17] | without significant effects | < 0.1 | – |
| Cc1ccc(C)c(NC(=S)NC(NC(=O)Cc2cccc3ccccc23)C(Cl)(Cl)Cl)c1 (stereo not drawn) [Compound 18] | without significant effects | < 0.1 | – |
| COc1ccc(C(=O)n2nnc3ccccc32)cc1 [Compound 19] | without significant effects | < 0.1 | – |
